Measurements from patent publication US8865644B2, “Rapamycin formulation using recombinant high-density lipoprotein including apolipoprotein A-I and a mutant thereof” (Industry-Academic Cooperation Foundation, Yeungnam …, priority 2010, dated 2014).
At least one structure is not confirmed: it was looked up by name or label, or the drawing left a doubt.

How the values were obtained:
[1] = Solubility of rapamycin in rHDL; assay type: physicochemical; settings: rHDL including WT or V156K, 1 mg/ml of protein
[2] = target: T1, cholesteryl ester transfer protein (CETP) (Homo sapiens, UniProt P11597); assay: Cholesteryl ester transfer protein (CETP) analysis, [3H]-CE transfer from rHDL to LDL; assay type: biochemical; settings: FIG. 5
T1 sequence (P11597 18-493): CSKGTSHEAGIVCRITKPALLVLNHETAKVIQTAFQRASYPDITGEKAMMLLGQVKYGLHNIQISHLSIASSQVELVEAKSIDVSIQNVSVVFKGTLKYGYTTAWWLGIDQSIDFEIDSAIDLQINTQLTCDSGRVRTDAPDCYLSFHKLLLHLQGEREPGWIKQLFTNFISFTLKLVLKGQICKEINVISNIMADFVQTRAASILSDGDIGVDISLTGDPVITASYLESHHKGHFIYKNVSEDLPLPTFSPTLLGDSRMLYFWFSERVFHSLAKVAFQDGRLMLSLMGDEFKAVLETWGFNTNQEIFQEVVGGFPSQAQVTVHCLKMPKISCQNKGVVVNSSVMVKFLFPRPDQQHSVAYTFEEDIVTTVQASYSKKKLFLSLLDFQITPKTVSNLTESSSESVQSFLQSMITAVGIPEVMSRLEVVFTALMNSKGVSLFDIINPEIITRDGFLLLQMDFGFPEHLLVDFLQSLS

With `CO[C@H]1C[C@@H]2CC[C@@H](C)[C@@](O)(O2)C(=O)C(=O)N2CCCC[C@H]2C(=O)O[C@H]([C@H](C)C[C@@H]2CC[C@@H](O)[C@H](OC)C2)CC(=O)[C@H](C)/C=C(\C)[C@@H](O)[C@@H](OC)C(=O)[C@H](C)C[C@H](C)/C=C/C=C/C=C/1C` [rapamycin] as the compound, how does the “rapamycin dissolved in rHDL” value [1] read?
The value was 0.09 mg/mL.

What about the “CETP suppression activity of rapamycin itself” value [2] of the same compound?
The value was “did not show an appropriate CETP suppression activity”.
